Values quoted from earlier work as cited in article PMC7017409, “Synthetic Approaches for Piperidone-Based Templates as Scaffolds to Access Chirally Enriched Donepezil Analogues” (ACS Omega, 2020).

Settings: aqueous solution at 37 °C; cited from earlier work

For `COc1cc2c(cc1OC)C(=O)C(CC1CCN(Cc3ccccc3)CC1)C2` (stereo not shown) [donepezil 1, donepezil], the racemization half-life is given as 78 h.
